Data as given in article PMC9406036.
Results are given in words; binding and its absence hold for the method and conditions named. Some binding calls cover weakened binding; strength is not graded here.

Protein sequences, listed by entry. Tags and fused reporters are not part of them. Lines headed by an entry give the natural chain unless they say otherwise; changes in a name come on top.
UniProt P02454: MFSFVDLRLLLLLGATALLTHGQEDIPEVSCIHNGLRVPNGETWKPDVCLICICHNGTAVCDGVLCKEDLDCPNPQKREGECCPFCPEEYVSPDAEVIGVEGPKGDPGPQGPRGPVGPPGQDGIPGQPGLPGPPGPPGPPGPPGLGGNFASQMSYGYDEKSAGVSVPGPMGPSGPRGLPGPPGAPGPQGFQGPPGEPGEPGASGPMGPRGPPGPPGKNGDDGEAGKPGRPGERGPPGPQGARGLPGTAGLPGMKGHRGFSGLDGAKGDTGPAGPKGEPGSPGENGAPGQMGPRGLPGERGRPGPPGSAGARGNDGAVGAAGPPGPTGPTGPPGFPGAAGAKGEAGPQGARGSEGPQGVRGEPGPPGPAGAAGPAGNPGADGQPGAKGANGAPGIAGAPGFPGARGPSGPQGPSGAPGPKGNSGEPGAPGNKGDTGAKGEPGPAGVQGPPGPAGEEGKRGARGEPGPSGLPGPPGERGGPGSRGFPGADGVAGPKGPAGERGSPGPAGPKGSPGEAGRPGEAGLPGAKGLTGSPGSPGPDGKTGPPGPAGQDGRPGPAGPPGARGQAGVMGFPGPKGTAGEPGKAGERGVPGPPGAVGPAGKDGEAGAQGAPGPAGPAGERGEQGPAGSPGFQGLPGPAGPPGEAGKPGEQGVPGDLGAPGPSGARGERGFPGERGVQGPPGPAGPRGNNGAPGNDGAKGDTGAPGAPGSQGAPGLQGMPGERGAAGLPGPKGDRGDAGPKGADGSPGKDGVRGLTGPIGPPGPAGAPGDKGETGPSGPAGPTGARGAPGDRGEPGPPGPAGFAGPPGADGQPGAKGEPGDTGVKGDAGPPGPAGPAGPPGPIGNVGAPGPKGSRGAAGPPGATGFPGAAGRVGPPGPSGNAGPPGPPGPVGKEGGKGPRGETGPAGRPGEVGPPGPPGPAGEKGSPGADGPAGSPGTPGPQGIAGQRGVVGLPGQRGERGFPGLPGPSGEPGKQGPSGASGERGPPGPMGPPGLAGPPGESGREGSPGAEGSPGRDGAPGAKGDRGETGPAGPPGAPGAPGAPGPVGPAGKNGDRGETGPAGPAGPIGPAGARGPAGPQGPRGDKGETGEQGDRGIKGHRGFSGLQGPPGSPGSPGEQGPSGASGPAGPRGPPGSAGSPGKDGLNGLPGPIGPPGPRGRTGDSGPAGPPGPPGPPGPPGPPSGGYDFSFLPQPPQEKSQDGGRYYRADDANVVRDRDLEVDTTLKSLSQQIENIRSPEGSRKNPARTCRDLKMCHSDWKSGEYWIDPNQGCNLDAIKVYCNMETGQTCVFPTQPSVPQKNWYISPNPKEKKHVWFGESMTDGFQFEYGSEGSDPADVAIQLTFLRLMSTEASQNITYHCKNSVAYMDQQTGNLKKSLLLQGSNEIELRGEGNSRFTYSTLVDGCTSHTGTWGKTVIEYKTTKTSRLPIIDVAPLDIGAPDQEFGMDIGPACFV
UniProt P02466: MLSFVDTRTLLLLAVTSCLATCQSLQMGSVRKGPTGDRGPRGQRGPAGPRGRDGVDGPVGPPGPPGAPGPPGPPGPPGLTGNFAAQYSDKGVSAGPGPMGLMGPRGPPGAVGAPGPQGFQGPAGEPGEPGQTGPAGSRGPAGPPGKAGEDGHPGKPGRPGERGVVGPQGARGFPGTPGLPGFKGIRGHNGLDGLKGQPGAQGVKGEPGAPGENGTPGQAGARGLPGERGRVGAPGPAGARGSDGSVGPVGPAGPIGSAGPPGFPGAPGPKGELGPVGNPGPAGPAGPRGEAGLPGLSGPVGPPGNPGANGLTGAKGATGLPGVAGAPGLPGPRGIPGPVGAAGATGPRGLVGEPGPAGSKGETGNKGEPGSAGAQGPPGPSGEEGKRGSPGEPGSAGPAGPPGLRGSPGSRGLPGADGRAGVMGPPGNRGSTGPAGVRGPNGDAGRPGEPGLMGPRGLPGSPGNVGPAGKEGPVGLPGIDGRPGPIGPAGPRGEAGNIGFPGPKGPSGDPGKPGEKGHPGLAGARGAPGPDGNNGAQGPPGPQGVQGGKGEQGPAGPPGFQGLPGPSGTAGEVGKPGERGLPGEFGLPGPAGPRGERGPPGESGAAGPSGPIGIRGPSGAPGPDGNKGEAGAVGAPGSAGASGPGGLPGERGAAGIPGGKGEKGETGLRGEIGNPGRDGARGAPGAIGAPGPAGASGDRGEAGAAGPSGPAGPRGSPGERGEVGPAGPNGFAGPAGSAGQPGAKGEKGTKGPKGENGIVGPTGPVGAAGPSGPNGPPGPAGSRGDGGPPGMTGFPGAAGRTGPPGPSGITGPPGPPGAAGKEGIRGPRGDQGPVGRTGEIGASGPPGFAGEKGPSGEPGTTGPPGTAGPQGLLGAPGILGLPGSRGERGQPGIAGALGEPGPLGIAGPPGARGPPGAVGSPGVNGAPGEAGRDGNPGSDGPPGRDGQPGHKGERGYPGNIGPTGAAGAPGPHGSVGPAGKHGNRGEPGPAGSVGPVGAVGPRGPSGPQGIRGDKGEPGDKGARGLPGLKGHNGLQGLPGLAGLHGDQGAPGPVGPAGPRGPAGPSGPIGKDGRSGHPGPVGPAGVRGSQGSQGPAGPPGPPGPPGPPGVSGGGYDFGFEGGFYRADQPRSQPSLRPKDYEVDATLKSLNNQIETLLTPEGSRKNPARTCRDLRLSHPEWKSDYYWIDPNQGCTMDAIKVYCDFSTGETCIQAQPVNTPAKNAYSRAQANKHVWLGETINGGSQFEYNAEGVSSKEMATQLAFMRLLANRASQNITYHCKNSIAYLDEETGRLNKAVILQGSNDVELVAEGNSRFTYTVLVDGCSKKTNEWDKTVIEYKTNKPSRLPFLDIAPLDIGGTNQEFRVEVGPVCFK

How the values were obtained:
[1] = target: T1, type I collagen from rat tail (rat) (UniProt P02454+P02466); assay: ELISA; higher oligomeric fraction of WT-MT1-MMP-ED (gel filtration peak #1) in serial dilution on wells coated with 10 µg/mL type I collagen; 1 h, 20 °C; 50 mM Tris pH 7.4, 150 mM NaCl, 5 mM CaCl2, 0.05% Tween; detected with anti-His-HRP; both purified
[2] = target: T1, type I collagen from rat tail (rat); assay: ELISA; unfractionated WT-MT1-MMP-ED (all oligomeric forms in the same sample) in serial dilution on wells coated with 10 µg/mL type I collagen; 1 h, 20 °C; 50 mM Tris pH 7.4, 150 mM NaCl, 5 mM CaCl2, 0.05% Tween; detected with anti-His-HRP; both purified
[3] = target: T1, type I collagen from rat tail (rat); assay: ELISA; dimeric fraction of WT-MT1-MMP-ED (gel filtration peak #2) in serial dilution on wells coated with 10 µg/mL type I collagen; 1 h, 20 °C; 50 mM Tris pH 7.4, 150 mM NaCl, 5 mM CaCl2, 0.05% Tween; detected with anti-His-HRP; both purified
[4] = target: T1, type I collagen from rat tail (rat); assay: ELISA; monomeric fraction of WT-MT1-MMP-ED (gel filtration peak #3) in serial dilution on wells coated with 10 µg/mL type I collagen; 1 h, 20 °C; 50 mM Tris pH 7.4, 150 mM NaCl, 5 mM CaCl2, 0.05% Tween; detected with anti-His-HRP; both purified

With “WT-MT1-MMP ectodomain (membrane type 1 matrix metalloproteinase, MMP-14), secreted active form without the prodomain (from UniProt P50281 112-541) (enzyme)” the binding [1] was “binds”, the binding [2] was “binds” and the binding [3] was “binds”. For the same substance, the binding [4] was “binds weakly”.
